Measured values published in patent US20240052061A1.
Results are given in words; binding and its absence hold for the method and conditions named. Some results given as binding are weak or reduced against the parent protein; the word gives no strength.

Legend:
[1] = target: T1, human ecto-nucleoside triphosphate diphosphohydrolase-3 (NTPDase3) (human) (UniProt O75355); experiment: flow cytometry on CHO-hENTPD3 cells, 20 min at 4 °C against 2 hours at 37 °C (FIG. 49)
T1 sequence (looked up): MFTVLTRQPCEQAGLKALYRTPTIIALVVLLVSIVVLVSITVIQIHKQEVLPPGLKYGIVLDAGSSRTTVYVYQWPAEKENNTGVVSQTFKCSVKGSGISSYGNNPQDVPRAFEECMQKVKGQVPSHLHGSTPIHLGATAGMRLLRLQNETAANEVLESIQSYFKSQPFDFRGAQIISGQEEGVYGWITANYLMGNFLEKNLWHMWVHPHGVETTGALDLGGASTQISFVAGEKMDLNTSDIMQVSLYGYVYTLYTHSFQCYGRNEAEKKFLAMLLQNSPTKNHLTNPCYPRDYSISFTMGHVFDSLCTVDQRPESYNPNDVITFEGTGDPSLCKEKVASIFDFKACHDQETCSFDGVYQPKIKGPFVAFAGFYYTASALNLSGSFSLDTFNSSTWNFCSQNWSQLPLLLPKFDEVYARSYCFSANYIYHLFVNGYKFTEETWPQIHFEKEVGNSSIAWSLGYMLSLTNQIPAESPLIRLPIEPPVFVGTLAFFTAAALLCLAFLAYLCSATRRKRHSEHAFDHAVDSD

[2] = target: T1, human ecto-nucleoside triphosphate diphosphohydrolase-3 (NTPDase3) (human); experiment: humanized clone against parental chimeric clone; flow cytometry on hENTPD3 cells
[3] = target: T1, human ecto-nucleoside triphosphate diphosphohydrolase-3 (NTPDase3) (human); experiment: stable immune complex assay, flow cytometry on COS7-hENTPD3 cells, 2 h against 24 h (FIG. 50)
[4] = target: T1, human ecto-nucleoside triphosphate diphosphohydrolase-3 (NTPDase3) (human); experiment: flow cytometry on COS7-hENTPD3 cells (FIG. 48)
[5] = target: T1, human ecto-nucleoside triphosphate diphosphohydrolase-3 (NTPDase3) (human); experiment: Table 1, Binding Kinetics (Association Rate); flow cytometry on hENTPD3 cells
[6] = target: T1, human ecto-nucleoside triphosphate diphosphohydrolase-3 (NTPDase3) (human); experiment: flow cytometry on CHO-hENTPD3 cells (FIG. 49)
[7] = target: T1, human ecto-nucleoside triphosphate diphosphohydrolase-3 (NTPDase3) (human); experiment: flow cytometry on COS7-hENTPD3 cells (FIG. 47)
[8] = target: T1, human ecto-nucleoside triphosphate diphosphohydrolase-3 (NTPDase3) (human); experiment: flow cytometry on COS7-hENTPD3 cells (FIG. 30)

Measured: binding

B1: 38D5 hIgG1 (antibody, V domains shown)
VH: EQQLLESGGGLVQPGGSLRLSCAASGIDFNNYGISWVRQAPGKGLEWIAYKYPGFGIRNYANSVKGRFTISSDNSKNTVYLQMNSLRAEDTAVYFCARGARYRHDDYGALNLWGPGTLVTVSS
VL: DIQMTQSPSTLSASVGDRVTITCQASQSVTNLLAWYQQKPGKPPKLLIYGASNLESGVPSRFSGSGSGTEFTLTISSLQPDDFATYYCQSGYYSANTFGPGTKVDIK
not listed: [8]
binds: all other assays above

B2: 38D5 hIgG4 (antibody, V domains shown)
VH: EQQLLESGGGLVQPGGSLRLSCAASGIDFNNYGISWVRQAPGKGLEWIAYKYPGFGIRNYANSVKGRFTISSDNSKNTVYLQMNSLRAEDTAVYFCARGARYRHDDYGALNLWGPGTLVTVSS
VL: DIQMTQSPSTLSASVGDRVTITCQASQSVTNLLAWYQQKPGKPPKLLIYGASNLESGVPSRFSGSGSGTEFTLTISSLQPDDFATYYCQSGYYSANTFGPGTKVDIK
binds: [5]

B3: PBI #30af4 hIgG1 (antibody, V domains shown)
VH: QVQLQESGGGLIQPGGSLRLSCAASGFTSSSSDYAMSWVRQAPGKGLEWVSSISGSGVSTYYADSVKGRFTISRDNSKNTLYVQMTSLTAEDTAVYYCAKVVGYSVYDYYYHYALDVWGQGTTVTVSS
VL: QPVLTQPPSASGTPGQRVTISCSGSSSNIGSNTVNWYQQLPGTAPKLLIYSDNQRPSGVPDRFSGSKSGTSASLTISGLKTEDEAGYYCQSDDTSNVVFGGGTKVTVL
binds: [3] | [5] | [8]

B4: PBI #30af4 hIgG4 (antibody, V domains shown)
VH: QVQLQESGGGLIQPGGSLRLSCAASGFTSSSSDYAMSWVRQAPGKGLEWVSSISGSGVSTYYADSVKGRFTISRDNSKNTLYVQMTSLTAEDTAVYYCAKVVGYSVYDYYYHYALDVWGQGTTVTVSS
VL: QPVLTQPPSASGTPGQRVTISCSGSSSNIGSNTVNWYQQLPGTAPKLLIYSDNQRPSGVPDRFSGSKSGTSASLTISGLKTEDEAGYYCQSDDTSNVVFGGGTKVTVL
binds: [5] | [8]
